{"sequences": {"note": "Sequences of proteins named here, by UniProt entry; tags and fusion partners are left off. A change or cut given only in a name is not applied to a line headed by its entry.", "UniProt P32908": "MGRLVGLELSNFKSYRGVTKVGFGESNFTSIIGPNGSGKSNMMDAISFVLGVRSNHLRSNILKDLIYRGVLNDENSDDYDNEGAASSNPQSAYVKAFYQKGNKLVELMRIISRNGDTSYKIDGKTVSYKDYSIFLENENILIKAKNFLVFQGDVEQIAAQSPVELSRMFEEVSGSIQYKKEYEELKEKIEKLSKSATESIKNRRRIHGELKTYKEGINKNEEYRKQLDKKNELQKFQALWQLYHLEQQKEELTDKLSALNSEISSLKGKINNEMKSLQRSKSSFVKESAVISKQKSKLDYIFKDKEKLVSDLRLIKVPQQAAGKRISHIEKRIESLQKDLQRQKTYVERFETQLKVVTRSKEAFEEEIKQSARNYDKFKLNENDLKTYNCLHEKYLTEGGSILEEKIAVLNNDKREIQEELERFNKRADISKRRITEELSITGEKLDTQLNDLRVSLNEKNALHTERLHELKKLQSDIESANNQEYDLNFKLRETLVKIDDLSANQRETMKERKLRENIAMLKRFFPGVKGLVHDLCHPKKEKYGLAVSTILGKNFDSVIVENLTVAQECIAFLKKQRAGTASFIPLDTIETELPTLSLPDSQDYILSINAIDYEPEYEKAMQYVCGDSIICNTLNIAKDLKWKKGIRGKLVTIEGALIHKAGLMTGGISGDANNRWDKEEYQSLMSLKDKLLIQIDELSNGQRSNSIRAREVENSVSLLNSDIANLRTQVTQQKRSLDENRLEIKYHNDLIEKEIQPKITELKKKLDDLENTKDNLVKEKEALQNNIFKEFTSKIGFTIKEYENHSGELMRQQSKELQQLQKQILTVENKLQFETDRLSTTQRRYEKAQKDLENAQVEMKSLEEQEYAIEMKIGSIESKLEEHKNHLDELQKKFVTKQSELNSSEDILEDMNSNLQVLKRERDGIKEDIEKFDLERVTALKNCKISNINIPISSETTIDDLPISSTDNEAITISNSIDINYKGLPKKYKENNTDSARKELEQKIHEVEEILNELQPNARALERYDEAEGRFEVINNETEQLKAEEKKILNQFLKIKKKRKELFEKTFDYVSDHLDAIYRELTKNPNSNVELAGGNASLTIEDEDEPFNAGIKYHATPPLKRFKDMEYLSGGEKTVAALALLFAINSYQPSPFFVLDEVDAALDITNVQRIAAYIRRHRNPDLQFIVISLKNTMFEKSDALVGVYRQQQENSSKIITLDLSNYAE", "UniProt P47037": "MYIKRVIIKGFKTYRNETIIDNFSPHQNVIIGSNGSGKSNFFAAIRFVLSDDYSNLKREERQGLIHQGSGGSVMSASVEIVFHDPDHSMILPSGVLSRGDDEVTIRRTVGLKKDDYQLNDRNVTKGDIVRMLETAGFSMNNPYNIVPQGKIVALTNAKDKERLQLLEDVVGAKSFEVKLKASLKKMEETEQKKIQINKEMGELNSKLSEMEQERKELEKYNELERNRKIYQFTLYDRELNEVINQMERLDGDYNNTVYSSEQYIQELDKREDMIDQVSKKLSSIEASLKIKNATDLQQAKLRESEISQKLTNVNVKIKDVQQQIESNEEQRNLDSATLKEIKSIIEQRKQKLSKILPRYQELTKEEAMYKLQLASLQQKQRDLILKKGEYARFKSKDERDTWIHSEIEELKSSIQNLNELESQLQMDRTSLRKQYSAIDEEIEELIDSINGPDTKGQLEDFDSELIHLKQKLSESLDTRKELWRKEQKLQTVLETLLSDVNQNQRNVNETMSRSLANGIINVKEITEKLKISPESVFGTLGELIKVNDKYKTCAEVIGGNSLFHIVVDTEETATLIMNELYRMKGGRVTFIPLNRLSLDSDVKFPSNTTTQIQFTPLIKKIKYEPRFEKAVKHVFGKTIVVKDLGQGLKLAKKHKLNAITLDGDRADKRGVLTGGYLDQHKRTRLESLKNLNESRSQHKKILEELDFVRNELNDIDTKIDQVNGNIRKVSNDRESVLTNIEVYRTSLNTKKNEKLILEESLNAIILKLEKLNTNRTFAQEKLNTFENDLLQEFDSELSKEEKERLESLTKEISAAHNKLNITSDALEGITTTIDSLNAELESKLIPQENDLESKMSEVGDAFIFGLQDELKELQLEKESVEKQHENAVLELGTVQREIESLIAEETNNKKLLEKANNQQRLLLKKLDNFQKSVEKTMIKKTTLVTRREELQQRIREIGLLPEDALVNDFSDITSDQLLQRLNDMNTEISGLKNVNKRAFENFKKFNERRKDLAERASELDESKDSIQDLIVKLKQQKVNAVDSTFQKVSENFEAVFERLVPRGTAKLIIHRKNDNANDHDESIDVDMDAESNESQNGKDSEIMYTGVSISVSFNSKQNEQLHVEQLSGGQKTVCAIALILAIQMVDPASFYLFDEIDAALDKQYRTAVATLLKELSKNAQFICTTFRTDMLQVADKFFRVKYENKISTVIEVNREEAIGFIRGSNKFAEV", "UniProt Q12158": "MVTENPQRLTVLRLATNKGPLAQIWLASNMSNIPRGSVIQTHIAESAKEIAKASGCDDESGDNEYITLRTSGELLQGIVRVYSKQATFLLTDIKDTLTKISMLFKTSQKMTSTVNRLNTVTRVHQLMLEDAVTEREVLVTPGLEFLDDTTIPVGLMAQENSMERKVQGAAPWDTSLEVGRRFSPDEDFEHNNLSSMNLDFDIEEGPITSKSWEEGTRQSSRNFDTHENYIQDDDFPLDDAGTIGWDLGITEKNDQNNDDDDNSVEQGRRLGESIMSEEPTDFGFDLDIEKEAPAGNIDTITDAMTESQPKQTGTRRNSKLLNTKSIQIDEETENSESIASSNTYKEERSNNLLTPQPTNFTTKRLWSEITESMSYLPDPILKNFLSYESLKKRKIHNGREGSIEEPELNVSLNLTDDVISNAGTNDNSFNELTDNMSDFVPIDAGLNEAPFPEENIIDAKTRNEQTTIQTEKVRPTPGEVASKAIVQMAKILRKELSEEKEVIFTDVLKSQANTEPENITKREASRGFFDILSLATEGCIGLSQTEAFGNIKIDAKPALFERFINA", "UniProt P40541": "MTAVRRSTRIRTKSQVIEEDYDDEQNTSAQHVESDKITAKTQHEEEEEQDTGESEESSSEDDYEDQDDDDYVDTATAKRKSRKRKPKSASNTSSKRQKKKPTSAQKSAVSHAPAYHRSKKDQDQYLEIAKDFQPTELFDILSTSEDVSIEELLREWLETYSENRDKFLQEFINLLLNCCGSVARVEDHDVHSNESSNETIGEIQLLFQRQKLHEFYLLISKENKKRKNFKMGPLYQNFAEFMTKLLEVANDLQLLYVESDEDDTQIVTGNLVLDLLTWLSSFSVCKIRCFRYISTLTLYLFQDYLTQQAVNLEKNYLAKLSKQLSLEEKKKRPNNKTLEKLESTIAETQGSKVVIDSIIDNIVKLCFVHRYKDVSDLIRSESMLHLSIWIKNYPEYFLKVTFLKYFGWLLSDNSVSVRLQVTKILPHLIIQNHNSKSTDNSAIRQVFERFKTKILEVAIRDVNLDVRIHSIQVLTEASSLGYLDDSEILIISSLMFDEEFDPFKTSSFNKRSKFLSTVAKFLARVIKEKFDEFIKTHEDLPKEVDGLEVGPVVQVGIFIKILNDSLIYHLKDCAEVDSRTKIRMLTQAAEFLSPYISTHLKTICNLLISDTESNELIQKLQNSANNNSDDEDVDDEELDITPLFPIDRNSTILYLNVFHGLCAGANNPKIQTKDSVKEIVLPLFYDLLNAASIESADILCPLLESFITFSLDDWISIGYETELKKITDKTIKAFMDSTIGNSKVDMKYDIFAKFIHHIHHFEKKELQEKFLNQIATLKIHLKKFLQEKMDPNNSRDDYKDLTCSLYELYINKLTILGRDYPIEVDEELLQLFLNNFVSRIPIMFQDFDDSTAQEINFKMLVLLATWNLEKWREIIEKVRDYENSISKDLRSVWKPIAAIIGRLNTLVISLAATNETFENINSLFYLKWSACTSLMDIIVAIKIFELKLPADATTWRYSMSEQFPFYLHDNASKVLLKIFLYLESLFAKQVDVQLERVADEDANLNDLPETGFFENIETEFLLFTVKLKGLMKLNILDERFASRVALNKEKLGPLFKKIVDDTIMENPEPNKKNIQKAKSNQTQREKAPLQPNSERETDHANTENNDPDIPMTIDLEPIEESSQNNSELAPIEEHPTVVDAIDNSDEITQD", "UniProt Q04002": "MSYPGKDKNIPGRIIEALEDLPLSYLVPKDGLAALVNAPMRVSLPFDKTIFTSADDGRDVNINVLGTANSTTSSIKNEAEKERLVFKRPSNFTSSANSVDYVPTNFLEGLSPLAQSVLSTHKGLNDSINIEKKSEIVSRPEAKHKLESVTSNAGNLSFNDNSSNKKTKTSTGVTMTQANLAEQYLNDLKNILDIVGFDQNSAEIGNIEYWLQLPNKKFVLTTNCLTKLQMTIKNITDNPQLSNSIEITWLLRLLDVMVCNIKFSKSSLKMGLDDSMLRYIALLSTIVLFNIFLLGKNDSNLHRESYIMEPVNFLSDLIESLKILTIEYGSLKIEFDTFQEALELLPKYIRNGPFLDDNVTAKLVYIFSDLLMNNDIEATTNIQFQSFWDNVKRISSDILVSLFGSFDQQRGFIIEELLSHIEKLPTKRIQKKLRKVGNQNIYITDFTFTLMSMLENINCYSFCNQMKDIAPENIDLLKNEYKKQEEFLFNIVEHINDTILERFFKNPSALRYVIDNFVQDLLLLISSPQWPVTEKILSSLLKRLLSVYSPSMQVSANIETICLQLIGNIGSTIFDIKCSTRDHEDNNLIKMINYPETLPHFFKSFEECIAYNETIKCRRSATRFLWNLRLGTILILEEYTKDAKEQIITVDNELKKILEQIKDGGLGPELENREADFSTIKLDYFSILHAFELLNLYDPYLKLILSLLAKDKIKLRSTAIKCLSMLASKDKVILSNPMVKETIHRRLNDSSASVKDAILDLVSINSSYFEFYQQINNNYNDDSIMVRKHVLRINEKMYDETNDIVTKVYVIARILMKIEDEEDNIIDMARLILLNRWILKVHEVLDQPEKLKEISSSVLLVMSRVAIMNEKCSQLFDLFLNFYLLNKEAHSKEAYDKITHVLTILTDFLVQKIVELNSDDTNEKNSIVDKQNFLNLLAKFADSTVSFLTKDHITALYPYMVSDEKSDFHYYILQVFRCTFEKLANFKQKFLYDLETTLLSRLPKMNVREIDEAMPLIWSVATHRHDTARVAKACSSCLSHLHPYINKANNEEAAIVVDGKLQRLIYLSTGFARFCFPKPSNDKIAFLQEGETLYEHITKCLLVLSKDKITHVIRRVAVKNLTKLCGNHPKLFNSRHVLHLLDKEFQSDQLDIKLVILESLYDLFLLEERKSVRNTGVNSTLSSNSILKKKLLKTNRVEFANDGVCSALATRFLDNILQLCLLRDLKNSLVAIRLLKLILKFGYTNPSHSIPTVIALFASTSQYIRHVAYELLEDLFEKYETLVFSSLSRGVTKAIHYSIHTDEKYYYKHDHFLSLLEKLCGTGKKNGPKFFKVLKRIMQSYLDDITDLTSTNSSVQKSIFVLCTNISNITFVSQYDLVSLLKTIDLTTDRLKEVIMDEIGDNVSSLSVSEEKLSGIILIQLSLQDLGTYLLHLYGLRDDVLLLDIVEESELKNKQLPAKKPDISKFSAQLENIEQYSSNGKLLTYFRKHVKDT"}, "source": "paper PMC6527865", "molecular_target": "cohesin in budding yeast cell extract (S. cerevisiae) (UniProt P32908+P47037+Q12158+P40541)", "experiment": "co-IP; interaction of cohesin and the cohesin loader in cell extracts, in the presence or absence of Sth1 (Figure S4C); bait and blots not given", "note": "Results are given in words; binding and its absence hold for the method and conditions named. In cells and extracts the contact can be indirect. Some results given as binding are weak or reduced against the parent protein; the word gives no strength.", "data": [{"substance": "cohesin loader in budding yeast cell extract (from UniProt Q04002 1-1493; P40090 1-624) (complex)", "values": [{"measurement": "binding", "value": "binds"}]}]}
